In PMC7795679:
These are yes or no findings as the source states them, for the method shown. Binding seen in cells or lysates may run through a third protein. Some results given as binding are weak or reduced against the parent protein; the word gives no strength.

The chains behind the UniProt entries cited, without tags or fusion partners.
UniProt P42866: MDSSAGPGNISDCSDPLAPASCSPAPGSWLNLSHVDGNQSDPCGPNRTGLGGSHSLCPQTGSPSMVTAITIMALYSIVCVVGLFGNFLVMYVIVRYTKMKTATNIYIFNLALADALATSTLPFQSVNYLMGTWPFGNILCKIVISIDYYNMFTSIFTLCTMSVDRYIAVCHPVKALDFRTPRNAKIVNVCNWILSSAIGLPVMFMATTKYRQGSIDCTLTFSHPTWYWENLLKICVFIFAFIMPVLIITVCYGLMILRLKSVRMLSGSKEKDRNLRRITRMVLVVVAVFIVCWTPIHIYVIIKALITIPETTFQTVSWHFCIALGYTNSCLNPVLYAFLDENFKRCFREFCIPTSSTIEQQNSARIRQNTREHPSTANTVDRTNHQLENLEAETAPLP
UniProt P32300: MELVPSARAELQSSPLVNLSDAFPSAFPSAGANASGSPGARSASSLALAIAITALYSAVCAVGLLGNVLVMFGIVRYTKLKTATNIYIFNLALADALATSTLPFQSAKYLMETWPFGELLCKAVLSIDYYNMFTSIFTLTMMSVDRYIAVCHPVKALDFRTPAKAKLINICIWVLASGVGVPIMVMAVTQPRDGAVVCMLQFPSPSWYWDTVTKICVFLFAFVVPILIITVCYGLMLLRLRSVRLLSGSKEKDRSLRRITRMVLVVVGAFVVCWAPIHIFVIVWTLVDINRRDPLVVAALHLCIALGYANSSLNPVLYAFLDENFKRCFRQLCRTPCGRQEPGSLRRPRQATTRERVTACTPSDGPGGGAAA

Experiments:
[1] = target: mu-opioid receptor (MOR) (mouse (endogenous in mouse nervous tissue)) (UniProt P42866); assay: co-IP; DRG of mice killed 5 min after intraplantar 0.5% formalin; solubilised membranes, immunoprecipitation and Western blot
[2] = target: mu-opioid receptor (MOR) (mouse (endogenous in mouse nervous tissue)) (UniProt P42866); assay: co-IP; solubilised (1% Nonidet P-40) synaptosomal P2 fractions of mouse cortex, PAG, pons-medulla, spinal cord and DRG; biotinylated IgGs against MOR, DOR or NR1 with streptavidin agarose, 4 °C overnight; Western blot; also after icv NMDA, icv or ip morphine, intraplantar formalin, CCI, and in HINT1-/- and σ1R-/- mice
[3] = target: delta-opioid receptor (DOR) (mouse (endogenous in mouse nervous tissue)) (UniProt P32300); assay: as above

NR1 subunit of the glutamate N-methyl-D-aspartate receptor (NMDAR) (from UniProt P35438-1 19-938)
binding [1]: binds weakly
binding [2]: binds

Transient receptor potential ankyrin member 1 (TRPA1) channel monomer (from UniProt Q8BLA8 1-1125)
binding [3]: binds
